# In the supplement of paper PMC4635364:
# Counter-ions that a name gives are not always drawn. The list shows a part of the results. This data set is noisy: repeats of one test often differ as much as different tests do.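 ReNCell VM, a human fetal ventral-midbrain neural progenitor line, was differentiated without mitogens. Blinded raters scored images stained for doublecortin (early neurons) or tyrosine hydroxylase (dopaminergic neurons) against untreated wells (0 = no change). Scores were averaged across repeats and both raters, and compounds averaging 2 or more were selected as hits for retesting.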
# Assays:
# [1] = tested on: ReNCell VM; test: neuronal differentiation score (DCX+ cell fraction vs untreated, manual image score) (score (-3 to 3)); higher = more neuronal differentiation; settings: 2 uM, 2 weeks
# [2] = tested on: ReNCell VM; test: dopaminergic neuron differentiation score (TH+ cell fraction vs untreated, manual image score) (score (0 to 3)); higher = more TH+ dopaminergic neuron differentiation; settings: 2 uM, 4 weeks, BDNF 10 ng/ml + GDNF 10 ng/ml
compound,measurement,setting,value
N[C@@H](Cc1ccc(O)c(I)c1)C(=O)O [3-Iodo-L-tyrosine],neuronal differentiation score,[1]; library: LOPAC,inactive: 0
same,dopaminergic neuron differentiation score,[2]; library: LOPAC,inactive: 0
CC[n+]1c(-c2ccccc2)c2cc(N)ccc2c2ccc(N)cc21,neuronal differentiation score,[1]; library: Spectrum,inactive: 0
same,dopaminergic neuron differentiation score,[2]; library: Spectrum,inactive: 0
Cc1cnc(NC(=O)C2=C(O)c3ccccc3S(=O)(=O)N2C)s1,neuronal differentiation score,[1]; library: Spectrum,inactive: -1
same,dopaminergic neuron differentiation score,[2]; library: Spectrum,inactive: 0
Cn1ccnc1S [Methimazole],neuronal differentiation score,[1]; library: Prestwick,inactive: 0
same,dopaminergic neuron differentiation score,[2]; library: Prestwick,inactive: 0
CC(C)c1ccc2c(c1)CC[C@H]1[C@](C)(CN)CCC[C@]21C [Lylamine hydrochloride],neuronal differentiation score,[1]; library: Tocriscreen,inactive: 0
same,dopaminergic neuron differentiation score,[2]; library: Tocriscreen,inactive: 0
CC(=O)OCC(=O)[C@@]1(O)CC[C@H]2[C@@H]3CCC4=CC(=O)CC[C@]4(C)[C@H]3C(=O)C[C@@]21C,neuronal differentiation score,[1]; library: Spectrum,inactive: 0
same,dopaminergic neuron differentiation score,[2]; library: Spectrum,inactive: 1
NC(=O)c1cn(Cc2c(F)cccc2F)nn1 [Rufinamide],neuronal differentiation score,[1]; library: LOPAC,inactive: 0
same,dopaminergic neuron differentiation score,[2]; library: LOPAC,inactive: 0
Nc1nc2c(nc(Br)n2C2OC3COP(=O)(O)O[C@@H]3C2O)c(=O)[nH]1 (stereo not given in full) [8-Bromo-cGMP sodium],neuronal differentiation score,[1]; library: LOPAC,inactive: 0
same,dopaminergic neuron differentiation score,[2]; library: LOPAC,inactive: 0
Cc1cc(-c2ccccc2)nnc1NCCN1CCOCC1,neuronal differentiation score,[1]; library: Spectrum,inactive: 0
same,dopaminergic neuron differentiation score,[2]; library: Spectrum,inactive: 0
CC(CCc1ccc(O)cc1)NCCc1ccc(O)c(O)c1 (stereo not given),neuronal differentiation score,[1]; library: Spectrum,inactive: 0
same,dopaminergic neuron differentiation score,[2]; library: Spectrum,inactive: 0
COc1cc(O)c(C(=O)/C=C/c2ccc(O)c(OC)c2)c(OC)c1,neuronal differentiation score,[1]; library: Spectrum,inactive: 0
same,dopaminergic neuron differentiation score,[2]; library: Spectrum,inactive: 0
O=C(O)c1ccc(-c2ccc3cc(O)c(C45CC6CC(CC(C6)C4)C5)cc3c2)cc1,neuronal differentiation score,[1]; library: Tocriscreen,inactive: 0
same,dopaminergic neuron differentiation score,[2]; library: Tocriscreen,inactive: 0
CCC(C)n1ncn(-c2ccc(N3CCN(c4ccc(OCC5COC(Cn6cncn6)(c6ccc(Cl)cc6Cl)O5)cc4)CC3)cc2)c1=O (stereo not given) [Itraconazole],neuronal differentiation score,[1]; library: Prestwick,inactive: 0
same,dopaminergic neuron differentiation score,[2]; library: Prestwick,inactive: 0
CC(=O)OC(C)C[N+](C)(C)C (stereo not drawn) [Acetyl-beta-methylcholine chloride],neuronal differentiation score,[1]; library: LOPAC,inactive: 0
same,dopaminergic neuron differentiation score,[2]; library: LOPAC,inactive: 0
CN1CCC(=C2c3ccccc3CCc3sccc32)CC1 [Pizotifen malate],neuronal differentiation score,[1]; library: Prestwick,inactive: 0
same,dopaminergic neuron differentiation score,[2]; library: Prestwick,inactive: 0
Cc1cccc(C#Cc2ccccc2)n1 [6-Methyl-2-(phenylethynyl)pyridine hydrochloride],neuronal differentiation score,[1]; library: LOPAC,inactive: -1
same,dopaminergic neuron differentiation score,[2]; library: LOPAC,inactive: 0
CCCCc1ccc2[nH]c(NC(=O)OC)nc2c1 [Parbendazole],neuronal differentiation score,[1]; library: Prestwick,inactive: 0
same,dopaminergic neuron differentiation score,[2]; library: Prestwick,inactive: 0
COc1cc2ncc(-c3ccccc3)nc2cc1OC [Tyrphostin AG 1296],neuronal differentiation score,[1]; library: LOPAC,inactive: 0
same,dopaminergic neuron differentiation score,[2]; library: LOPAC,inactive: 0
O=C1NC(=O)c2c1c(-c1ccccc1)cc1[nH]c3ccc(O)cc3c21,neuronal differentiation score,[1]; library: Tocriscreen,inactive: 0
same,dopaminergic neuron differentiation score,[2]; library: Tocriscreen,inactive: 0
Cn1c(=O)c2nc[nH]c2n(C)c1=O [Theophylline],neuronal differentiation score,[1]; library: LOPAC,inactive: 0
same,dopaminergic neuron differentiation score,[2]; library: LOPAC,inactive: 0
CC(=O)OC[C@@]1(O)C[C@@]23CC[C@@H]4c5ccoc5CC[C@@]4(C)[C@@H]2CC[C@@H]1C3,neuronal differentiation score,[1]; library: Spectrum,inactive: 0
same,dopaminergic neuron differentiation score,[2]; library: Spectrum,inactive: 0
C[C@]12CC[C@@H]3c4ccc(OC(=O)c5ccccc5)cc4CC[C@H]3[C@@H]1CC[C@@H]2O,neuronal differentiation score,[1]; library: Spectrum,inactive: 0
same,dopaminergic neuron differentiation score,[2]; library: Spectrum,inactive: 0
COc1ccc2c(c1)OCC(Cc1ccc(O)c(OC)c1)C2=O (stereo not given),neuronal differentiation score,[1]; library: Spectrum,inactive: 0
same,dopaminergic neuron differentiation score,[2]; library: Spectrum,inactive: 0
C[N+](C)(C)CC(=O)O [Betaine hydrochloride],neuronal differentiation score,[1]; library: LOPAC,inactive: 0
same,dopaminergic neuron differentiation score,[2]; library: LOPAC,inactive: 0
N[C@@H](C(=O)N[C@@H]1C(=O)N2C(C(=O)O)=C(Cl)CS[C@H]12)c1ccccc1 [Cefaclor hydrate],neuronal differentiation score,[1]; library: Prestwick,inactive: 0
same,dopaminergic neuron differentiation score,[2]; library: Prestwick,inactive: 0
COc1ccc2cc(CCC(C)=O)ccc2c1,neuronal differentiation score,[1]; library: Spectrum,inactive: 0
same,dopaminergic neuron differentiation score,[2]; library: Spectrum,inactive: 0
O=C(Nc1ccccc1)C12CC1C(=NO)c1ccccc1O2 (stereo not given),neuronal differentiation score,[1]; library: Tocriscreen,inactive: 0
same,dopaminergic neuron differentiation score,[2]; library: Tocriscreen,inactive: 0
Cc1cc(C)c(S(=O)(=O)Nc2cccc(C(F)(F)F)c2)c(C)c1,neuronal differentiation score,[1]; library: Tocriscreen,inactive: 0
same,dopaminergic neuron differentiation score,[2]; library: Tocriscreen,inactive: 0
COc1cc(NC(=O)c2ccccn2)ccc1Cl,neuronal differentiation score,[1]; library: Tocriscreen,inactive: 0
same,dopaminergic neuron differentiation score,[2]; library: Tocriscreen,inactive: 0
C#CCCCCCCCCCCCc1ccco1,neuronal differentiation score,[1]; library: Spectrum,inactive: 0
same,dopaminergic neuron differentiation score,[2]; library: Spectrum,inactive: 0
O=C(O)CCCC[C@@H]1SC[C@@H]2NC(=O)N[C@@H]21,neuronal differentiation score,[1]; library: Spectrum,inactive: 0
same,dopaminergic neuron differentiation score,[2]; library: Spectrum,inactive: 0
CN(C)c1ccc(O)c2c1C[C@H]1C[C@H]3[C@H](N(C)C)C(O)=C(C(N)=O)C(=O)[C@@]3(O)C(O)=C1C2=O,neuronal differentiation score,[1]; library: Spectrum,inactive: 0
same,dopaminergic neuron differentiation score,[2]; library: Spectrum,inactive: 0
CC(C)NCC(O)c1cc(O)cc(O)c1 (stereo not given),neuronal differentiation score,[1]; library: Spectrum,inactive: 0
same,dopaminergic neuron differentiation score,[2]; library: Spectrum,inactive: 0
CO[C@H]1C[C@H](O[C@H]2[C@H](C)O[C@@H](O[C@@H]3/C(C)=C/C[C@@H]4C[C@@H](C[C@]5(C=C[C@H](C)[C@@H](C6CCCCC6)O5)O4)OC(=O)[C@@H]4C=C(C)[C@@H](O)[C@H]5OC/C(=C\C=C\[C@@H]3C)[C@]54O)C[C@@H]2OC)O[C@@H](C)[C@@H]1O,neuronal differentiation score,[1]; library: Spectrum,inactive: 0
same,dopaminergic neuron differentiation score,[2]; library: Spectrum,inactive: 1
CC(=O)OCC(=O)[C@@]1(O)CC[C@H]2[C@@H]3CCC4=CC(=O)CC[C@]4(C)[C@H]3C(=O)C[C@@]21C [Cortisone 21-acetate],neuronal differentiation score,[1]; library: LOPAC,inactive: 0
same,dopaminergic neuron differentiation score,[2]; library: LOPAC,inactive: 0

# Part of the list above, tab-delimited:
compound	measurement	setting	value
Nc1nc2c(nc(Br)n2C2OC3COP(=O)(O)O[C@@H]3C2O)c(=O)[nH]1 (stereo not given in full) [8-Bromo-cGMP sodium]	dopaminergic neuron differentiation score	[2]; library: LOPAC	inactive: 0
O=C(Nc1ccccc1)C12CC1C(=NO)c1ccccc1O2 (stereo not given)	neuronal differentiation score	[1]; library: Tocriscreen	inactive: 0
same	dopaminergic neuron differentiation score	[2]; library: Tocriscreen	inactive: 0

# Some of the entries above in another layout:
compound | measurement | setting | value
CC(=O)OCC(=O)[C@@]1(O)CC[C@H]2[C@@H]3CCC4=CC(=O)CC[C@]4(C)[C@H]3C(=O)C[C@@]21C | dopaminergic neuron differentiation score | [2]; library: Spectrum | inactive: 1
COc1cc(NC(=O)c2ccccn2)ccc1Cl | neuronal differentiation score | [1]; library: Tocriscreen | inactive: 0
